Experimental data published in patent US20250154121A1, “CYCLIC(ALKYL)(AMINO)ALKOXY-SUBSTITUTED ARYL-PYRONE COMPOUND AND USE THEREOF” (priority 2022, published 2025).
At least one structure is not confirmed: it was looked up by name or label, or the drawing left a doubt.

Sequences of proteins named here, by UniProt entry; tags and fusion partners are left off. Residues count along the entry.
UniProt Q9BYF1, 18-805: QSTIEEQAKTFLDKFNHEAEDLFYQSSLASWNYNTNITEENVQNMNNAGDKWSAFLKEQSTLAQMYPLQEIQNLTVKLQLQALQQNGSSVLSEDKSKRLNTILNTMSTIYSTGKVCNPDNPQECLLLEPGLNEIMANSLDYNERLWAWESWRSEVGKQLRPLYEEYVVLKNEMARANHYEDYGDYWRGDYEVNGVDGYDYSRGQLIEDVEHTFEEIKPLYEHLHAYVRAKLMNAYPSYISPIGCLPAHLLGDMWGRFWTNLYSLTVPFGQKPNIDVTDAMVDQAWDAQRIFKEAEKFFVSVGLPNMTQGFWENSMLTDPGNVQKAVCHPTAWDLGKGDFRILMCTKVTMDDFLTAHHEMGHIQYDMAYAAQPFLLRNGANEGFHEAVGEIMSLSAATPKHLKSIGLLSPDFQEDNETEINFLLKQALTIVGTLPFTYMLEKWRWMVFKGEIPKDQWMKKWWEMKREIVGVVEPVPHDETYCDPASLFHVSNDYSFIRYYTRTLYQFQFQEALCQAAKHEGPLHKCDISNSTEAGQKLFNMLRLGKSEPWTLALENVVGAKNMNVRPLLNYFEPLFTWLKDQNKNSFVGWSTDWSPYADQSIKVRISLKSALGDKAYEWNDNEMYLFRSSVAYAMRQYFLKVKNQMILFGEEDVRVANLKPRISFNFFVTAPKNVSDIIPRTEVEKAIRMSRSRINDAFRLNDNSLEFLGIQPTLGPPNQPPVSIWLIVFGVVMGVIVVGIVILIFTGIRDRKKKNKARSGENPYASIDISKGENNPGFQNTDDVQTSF

What was measured:
ACE2 receptor = ACE2 receptor (Homo sapiens, UniProt Q9BYF1); assay: ACE2-293T/CMC cell membrane chromatography binding
[1] = test system: IL-1 and IL-10 in lung tissue; assay: Lung tissue inflammatory factor levels, coronavirus 229E-infected mice; assay type: in vivo; conditions: after 4 days of administration, vs model control group p<0.01

With `O=c1c(-c2ccccc2)coc2cc(OCCNC3CC3)ccc12` [Compound 4] the Capacity factor ks (ACE2 receptor; ACE2-293T/CMC column) was 6.57, the “Retention time on ACE2-293T/CMC column” value (ACE2 receptor; mobile phase water, 0.2 mL/min, 37° C.) was 6.597 min and the “IL-1 content in lung tissue” value ([1]; FIG. 6) was “significantly reduced”. For the same compound, the “IL-10 content in lung tissue” value ([1]; FIG. 7) was “significantly reduced”.
